# Measured values: PubChem BioAssay AID330 (DTP/NCI, 2004)
# The list is a part of this screen's results and no random one: it gathers tests that were run many times, whatever their T/C, doses with no T/C, and many T/C values between a quarter and a half above the control. Further doses and runs are listed elsewhere. T/C gives the treated animals as a percentage of the vehicle group. Some doses have a count of surviving animals in place of a T/C: the source files T/C as zero there, which appears to mark a toxic dose or a test without result, not a measured value. Some survivor counts are full or nearly so, which does not show that the dose was tolerated: survival well below the control is almost never listed, so the zero probably covers shortened survival too. Counts of survivors are from the toxicity check (mostly the fifth day) where no day follows; animals may have died later. Schedules are NCI's codes, taken here to give the interval after Q, in days (D) or hours (H), and the number of doses after X. Some entries were tested several times; the values are given in rising order. Signs of the kind (2×) stand for listed records that agree. Where survival is the endpoint, the PubChem record calls one and a half times the control and up active, and a quarter to a half above the control has no call in these data; cut-offs in other NCI protocols can differ. Some T/C values are followed by the survivors on the day toxicity was checked, most often the fifth; where none is given, no animal had died by that day.
# System: P388 leukemia ip, CD2F1 mice, survival T/C
# Experiment: NCI In Vivo Anticancer Drug Screen. Data for tumor model P388 Leukemia (intraperitoneal) in CD2F1 (CDF1) mice
# Conditions: T/C endpoint: median survival time, higher T/C = longer survival
smiles,measurement,setting,value
CC[C@]1(O)C[C@H]2CN(CCc3c([nH]c4ccccc34)[C@@](C(=O)OC)(c3cc4c(cc3OC)N(C=O)[C@H]3[C@@](O)(C(=O)OC)[C@H](OC(C)=O)[C@]5(CC)C=CCN6CC[C@]43[C@@H]65)C2)C1,survivor count,"dose: 2.0 mg/kg/injection, schedule: Q04DX003 (iv), vehicle: saline",6 of 6
same,T/C,"dose: 2.25 mg/kg/injection, schedule: Q04DX003 (ip), vehicle: saline, evaluated on day 5",189 and 258 % of control
same,T/C,"dose: 2.25 mg/kg/injection, schedule: Q04DX003 (ip), vehicle: saline, evaluated on day 9",128 [8 of 9 alive] and 147 % of control
same,T/C,"dose: 2.5 mg/kg/injection, schedule: Q04DX003 (ip), vehicle: saline, evaluated on day 45",118 and 270 % of control
same,T/C,"dose: 2.5 mg/kg/injection, schedule: Q04DX003 (ip), vehicle: saline, evaluated on day 60",227 % of control
same,survivor count,"dose: 2.5 mg/kg/injection, schedule: Q04DX003 (ip), vehicle: saline",7 of 10
same,T/C,"dose: 2.9 mg/kg/injection, schedule: Q04DX003 (ip), vehicle: saline","73, 99, 119, 122, 147, 150, 153 [8 of 9 alive], 228 % of control"
same,survivor count,"dose: 3.0 mg/kg/injection, schedule: Q04DX002 (ip), vehicle: saline",8 of 8
same,T/C,"dose: 3.0 mg/kg/injection, schedule: Q04DX003 (ip), vehicle: saline, evaluated on day 20",99 % of control [5 of 6 alive]
same,T/C,"dose: 3.0 mg/kg/injection, schedule: Q04DX003 (ip), vehicle: saline, evaluated on day 23",214 % of control
same,T/C,"dose: 3.0 mg/kg/injection, schedule: Q04DX003 (ip), vehicle: saline, evaluated on day 29",295 % of control
same,T/C,"dose: 3.0 mg/kg/injection, schedule: Q04DX003 (ip), vehicle: saline, evaluated on day 30","88, 89, 96, 97, 98, 99, 100 (2×), 102, 104 (2×), 106 [5 of 6 alive], 108, 111, 114, 117, 119, 121, 123 (2×), 124, 129 (2×), 143, 147, 155, 179 [5 of 6 alive], 189 [5 of 6 alive], 190 [5 of 6 alive], 192, 198, 200 (2×), 206, 211, 214, 216, 218, 223 [3 of 4 alive], 230, 235, 239, 240, 243, 243 [5 of 6 alive], 245 (2×), 250, 255, 258, 262 (2×), 273, 283 [9 of 10 alive], 290, 294 % of control"
same,T/C,"dose: 3.0 mg/kg/injection, schedule: Q04DX003 (ip), vehicle: saline, evaluated on day 40",252 % of control
same,T/C,"dose: 3.0 mg/kg/injection, schedule: Q04DX003 (ip), vehicle: saline, evaluated on day 45","102 [9 of 10 alive], 112, 123 [9 of 10 alive], 192, 204, 205 (2×), 247, 259, 276, 280 % of control"
same,T/C,"dose: 3.0 mg/kg/injection, schedule: Q04DX003 (ip), vehicle: saline, evaluated on day 56",210 % of control
same,T/C,"dose: 3.0 mg/kg/injection, schedule: Q04DX003 (ip), vehicle: saline, evaluated on day 60","206, 273, 284 % of control"
same,survivor count,"dose: 3.0 mg/kg/injection, schedule: Q04DX003 (ip), vehicle: saline","8 of 10, 5 of 6, 9 of 10, 10 of 10, 6 of 6"
same,survivor count,"dose: 3.2 mg/kg/injection, schedule: Q01DX009 (ip), vehicle: saline",1 of 6 and 3 of 6
same,survivor count,"dose: 3.2 mg/kg/injection, schedule: Q04DX003 (ip), vehicle: water","3 of 6, 4 of 6, 6 of 6"
same,survivor count,"dose: 3.33 mg/kg/injection, schedule: Q04DX002 (ip), vehicle: saline",8 of 8
same,T/C,"dose: 4.0 mg/kg/injection, schedule: Q01DX001 (ip), vehicle: saline, evaluated on day 5","74, 139, 144, 180, 182 % of control"
same,T/C,"dose: 4.0 mg/kg/injection, schedule: Q01DX001 (ip), vehicle: saline, evaluated on day 30","142, 157, 175 [4 of 5 alive], 208 % of control"
same,survivor count,"dose: 4.0 mg/kg/injection, schedule: Q01DX001 (ip), vehicle: saline","0 of 3, 0 of 6, 1 of 6, 2 of 6, 3 of 6 (2×)"
same,T/C,"dose: 4.0 mg/kg/injection, schedule: Q01DX001 (ip), vehicle: water, evaluated on day 3",51 % of control
same,T/C,"dose: 4.0 mg/kg/injection, schedule: Q01DX001 (ip), vehicle: water, evaluated on day 5","90, 181, 185, 189, 190 % of control [8 of 9 alive]"
same,T/C,"dose: 4.0 mg/kg/injection, schedule: Q01DX001 (ip), vehicle: water, evaluated on day 6","148, 153, 158 % of control"
same,T/C,"dose: 4.0 mg/kg/injection, schedule: Q01DX001 (ip), vehicle: water, evaluated on day 10",97 % of control
same,T/C,"dose: 4.0 mg/kg/injection, schedule: Q01DX001 (ip), vehicle: water, evaluated on day 30","153, 160, 169 [5 of 6 alive] (2×), 170 [4 of 6 alive], 170 [5 of 6 alive], 172 [5 of 6 alive] (2×), 173, 175, 177 [5 of 6 alive] (2×), 180 [4 of 6 alive], 185 [5 of 6 alive], 189 [2 of 3 alive], 197, 198 % of control"
same,T/C,"dose: 4.0 mg/kg/injection, schedule: Q01DX001 (ip), vehicle: water, evaluated on day 35",169 % of control [5 of 6 alive]
same,survivor count,"dose: 4.0 mg/kg/injection, schedule: Q01DX001 (ip), vehicle: water","0 of 5, 0 of 6 (2×), 1 of 6, 1 of 3, 2 of 6 (2×), 3 of 6 (2×), 2 of 3, 4 of 6 (2×), 5 of 6, 3 of 3"
same,T/C,"dose: 4.0 mg/kg/injection, schedule: Q04DX003 (ip), vehicle: saline, evaluated on day 9",105 and 140 % of control
same,T/C,"dose: 4.0 mg/kg/injection, schedule: Q04DX003 (ip), vehicle: saline, evaluated on day 35",94 % of control
same,survivor count,"dose: 4.0 mg/kg/injection, schedule: Q04DX003 (ip), vehicle: saline",5 of 6
same,survivor count,"dose: 4.0 mg/kg/injection, schedule: Q04DX003 (iv), vehicle: saline",4 of 6
same,survivor count,"dose: 6.4 mg/kg/injection, schedule: Q01DX009 (ip), vehicle: saline",0 of 6
same,survivor count,"dose: 6.4 mg/kg/injection, schedule: Q04DX003 (ip), vehicle: water",4 of 6
same,survivor count,"dose: 8.0 mg/kg/injection, schedule: Q01DX001 (ip), vehicle: Klucel (hydroxypropylcellulose) (HPC)",5 of 6
same,T/C,"dose: 8.0 mg/kg/injection, schedule: Q01DX001 (ip), vehicle: saline, evaluated on day 5","37, 55, 145, 151 % of control"
same,T/C,"dose: 8.0 mg/kg/injection, schedule: Q01DX001 (ip), vehicle: saline, evaluated on day 30",142 [5 of 6 alive] and 179 % of control [5 of 6 alive]
same,survivor count,"dose: 8.0 mg/kg/injection, schedule: Q01DX001 (ip), vehicle: saline","0 of 3, 1 of 5, 2 of 6, 3 of 5"
same,T/C,"dose: 8.0 mg/kg/injection, schedule: Q01DX001 (ip), vehicle: water, evaluated on day 3",76 % of control
same,T/C,"dose: 8.0 mg/kg/injection, schedule: Q01DX001 (ip), vehicle: water, evaluated on day 6","71, 76, 90 % of control"
same,T/C,"dose: 8.0 mg/kg/injection, schedule: Q01DX001 (ip), vehicle: water, evaluated on day 10",97 % of control
same,T/C,"dose: 8.0 mg/kg/injection, schedule: Q01DX001 (ip), vehicle: water, evaluated on day 30","97, 156 [5 of 6 alive], 171 [4 of 6 alive], 219 % of control"
same,T/C,"dose: 8.0 mg/kg/injection, schedule: Q01DX001 (ip), vehicle: water, evaluated on day 35",195 % of control
same,survivor count,"dose: 8.0 mg/kg/injection, schedule: Q01DX001 (ip), vehicle: water","0 of 3, 0 of 6 (2×), 1 of 6, 2 of 6 (2×), 3 of 6 (3×), 2 of 3, 5 of 6, 6 of 6"
same,survivor count,"dose: 8.0 mg/kg/injection, schedule: Q04DX003 (ip), vehicle: saline",1 of 6
same,T/C,"dose: 8.0 mg/kg/injection, schedule: Q04DX003 (oral), vehicle: water",135 % of control
same,survivor count,"dose: 12.8 mg/kg/injection, schedule: Q01DX009 (ip), vehicle: saline",0 of 6
